Results are given in words; binding and its absence hold for the method and conditions named. Some results given as binding are weak or reduced against the parent protein; the word gives no strength.
Molecular target: Nedd-4-like ubiquitin-protein ligase (Atropin-1-interacting protein 5) (human) (UniProt Q9H0M0)
Test: WW domain array probed with purified cytosolic hPRRG4; listed as a hit

binding: binds
B1: cytosolic domain of human PRRG4 (protein, not shown: small tags and cut ends)
chain: CITKCNRLQHPCSSAVYERGRHTPSIIFRRPEEAALSPLPPSVEDAGLPSYEQAVALTRKHSVSPPPPYPGHTKGFRVFKKSMSLPSH
